The text below walks through data of PMC11255254, “ER-associated VAP27-1 and VAP27-3 proteins functionally link the lipid-binding ORP2A at the ER-chloroplast contact sites” (Nature Communications, 2024).

Sequences of proteins named here, by UniProt entry; tags and fusion partners are left off.
UniProt Q9SVC4: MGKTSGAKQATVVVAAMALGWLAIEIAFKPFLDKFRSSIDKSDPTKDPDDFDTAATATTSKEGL

These are yes or no findings as the source states them, for the method shown. Binding seen in cells or lysates may run through a third protein. Tags and fused reporters may be left off the sequences shown.

The target in this assay is OEP7-nYFP (Outer Envelope Protein 7 fused to the N-terminal half of YFP) (Arabidopsis thaliana) (UniProt Q9SVC4). The assay is described as follows: split reporter; BiFC with split Venus YFP (cYFP and nYFP fusions), transient expression in tobacco leaf epidermal cells, confocal imaging; used by the authors as a reporter of membrane proximity.

B1: cYFP-VAP27-1 (full-length VAP27-1 fused to the C-terminal half of YFP) (protein, UniProt Q8VZ95 1-256)
chain: MSNIDLIGMSNRDLIGMSNSELLTVEPLDLQFPFELKKQISCSLYLTNKTDNNVAFKVKTTNPKKYCVRPNTGVVLPRSTCEVLVTMQAQKEAPSDMQCKDKFLLQGVIASPGVTAKEVTPEMFSKEAGHRVEETKLRVTYVAPPRPPSPVHEGSEEGSSPRASVSDNGHGSEFSFERFIVDNKAGHQENTSEARALITKLTEEKQSAIQLNNRLQRELDQLRRESKKSQSGGIPFMYVLLVGLIGLILGYIMKRT
Take B1: the binding result was “no binding”.
